The results in this text go back to PMC4828706.

Sequences of proteins named here, by UniProt entry; tags and fusion partners are left off. Residues count along the entry.
UniProt Q96D31: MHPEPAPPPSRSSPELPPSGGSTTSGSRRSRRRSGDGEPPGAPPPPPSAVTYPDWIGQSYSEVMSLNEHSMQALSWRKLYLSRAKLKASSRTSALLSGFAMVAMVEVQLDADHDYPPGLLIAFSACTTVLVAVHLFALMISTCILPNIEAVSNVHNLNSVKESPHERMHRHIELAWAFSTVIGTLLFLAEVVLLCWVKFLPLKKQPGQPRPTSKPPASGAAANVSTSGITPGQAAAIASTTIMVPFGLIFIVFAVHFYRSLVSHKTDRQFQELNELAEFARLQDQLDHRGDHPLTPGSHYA
UniProt Q8BWG9: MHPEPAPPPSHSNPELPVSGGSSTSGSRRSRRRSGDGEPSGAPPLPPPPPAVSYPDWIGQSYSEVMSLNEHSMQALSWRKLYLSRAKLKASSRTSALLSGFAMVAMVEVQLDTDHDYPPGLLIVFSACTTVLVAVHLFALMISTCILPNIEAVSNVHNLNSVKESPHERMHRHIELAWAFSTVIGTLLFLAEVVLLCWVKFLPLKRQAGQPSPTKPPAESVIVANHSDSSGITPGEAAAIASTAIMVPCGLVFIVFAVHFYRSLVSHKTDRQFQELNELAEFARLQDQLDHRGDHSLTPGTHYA
UniProt Q13586, residues 23-685: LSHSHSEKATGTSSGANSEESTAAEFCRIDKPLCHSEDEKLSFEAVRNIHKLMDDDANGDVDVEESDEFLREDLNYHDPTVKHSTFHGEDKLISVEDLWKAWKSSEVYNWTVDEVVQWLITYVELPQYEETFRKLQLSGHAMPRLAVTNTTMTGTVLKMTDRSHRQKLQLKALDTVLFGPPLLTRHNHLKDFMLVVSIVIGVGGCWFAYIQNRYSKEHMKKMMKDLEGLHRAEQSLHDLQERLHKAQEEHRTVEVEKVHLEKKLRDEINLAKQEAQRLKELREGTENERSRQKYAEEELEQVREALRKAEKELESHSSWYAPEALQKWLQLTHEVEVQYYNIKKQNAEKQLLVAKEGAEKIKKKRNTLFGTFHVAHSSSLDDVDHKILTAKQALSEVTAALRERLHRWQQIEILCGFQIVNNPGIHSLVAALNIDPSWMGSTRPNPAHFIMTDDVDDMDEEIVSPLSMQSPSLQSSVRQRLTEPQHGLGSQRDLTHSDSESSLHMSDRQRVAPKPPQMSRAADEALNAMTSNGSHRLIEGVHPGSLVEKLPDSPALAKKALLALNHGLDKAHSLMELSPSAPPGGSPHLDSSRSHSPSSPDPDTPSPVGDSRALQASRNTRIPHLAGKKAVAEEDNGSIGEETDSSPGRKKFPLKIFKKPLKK

Assay [1] concerns the target T1, SOCE-associated regulatory factor (SARAF) (human (endogenous in MEG-01)) (UniProt Q96BY9).
T1 sequence: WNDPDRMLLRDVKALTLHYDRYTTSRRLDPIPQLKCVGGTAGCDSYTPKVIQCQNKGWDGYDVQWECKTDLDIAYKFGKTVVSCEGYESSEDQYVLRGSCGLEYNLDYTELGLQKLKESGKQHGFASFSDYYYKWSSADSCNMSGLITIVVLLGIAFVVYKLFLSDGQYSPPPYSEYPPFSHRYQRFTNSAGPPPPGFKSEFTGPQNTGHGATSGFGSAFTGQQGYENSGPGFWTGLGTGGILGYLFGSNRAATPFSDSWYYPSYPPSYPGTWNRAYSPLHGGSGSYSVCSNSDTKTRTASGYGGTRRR
The experiment in a line: co-IP; endogenous proteins in MEG-01 whole cell lysates (NP-40 buffer, pH 8), protein A-agarose overnight at 4 °C; IP anti-STIM1 and blot anti-Orai1 (Fig. 1d), IP with the indicated antibody and blots anti-Orai1, anti-SARAF, anti-STIM1 (Fig. 4a); resting cells and cells treated with TG 1 μM (30, 60, 120 s or 3 min); also cells overexpressing SARAF or with siSARAF.

Assay [2] deals with T1, SOCE-associated regulatory factor (SARAF) (human (endogenous in MEG-01)). Put plainly: proximity ligation; Duolink in situ PLA on fixed, permeabilised MEG-01 cells; rabbit anti-SARAF with mouse anti-STIM1 or mouse anti-Orai1; resting cells and TG 1 μM for 30 or 120 s.
The target of assay [3] is T2, SARAF (endogenous in NG115-401L cells) (not stated (endogenous in NG115-401L)) (UniProt Q8R3Q0).
T2 sequence: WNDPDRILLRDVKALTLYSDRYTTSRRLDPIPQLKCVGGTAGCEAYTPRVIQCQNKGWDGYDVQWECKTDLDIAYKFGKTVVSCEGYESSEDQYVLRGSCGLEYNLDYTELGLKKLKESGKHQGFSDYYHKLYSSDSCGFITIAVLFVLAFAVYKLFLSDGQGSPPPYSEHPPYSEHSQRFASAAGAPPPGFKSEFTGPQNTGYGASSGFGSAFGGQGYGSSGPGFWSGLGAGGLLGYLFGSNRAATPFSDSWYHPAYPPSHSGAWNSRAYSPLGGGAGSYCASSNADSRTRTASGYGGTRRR
The experiment in a line: co-IP; endogenous proteins in whole cell lysates of STIM1-deficient NG115-401L cells; before and 30, 60, 120 s after TG 1 μM, 300 μM extracellular Ca2+.

These are yes or no findings as the source states them, for the method shown. Binding seen in cells or lysates may run through a third protein. Some binding calls cover weakened binding; strength is not graded here.

On to Orai1 (from UniProt Q96D31 1-301), for which the binding entry in assay [1] and in assay [2] was “binds” each time. Consider “Orai1 (endogenous in NG115-401L cells) (from UniProt Q8BWG9 1-304)”, for which, in assay [3], the binding result is “binds”. Regarding STIM1 (from UniProt Q13586 23-685), the binding entry in assay [1] and in assay [2] was “binds” in each case.
